Where a chain is given by its changes, count along the chain named. Results are given in words; binding and its absence hold for the method and conditions named. Binding seen in cells or lysates may run through a third protein. A yes stands for co-enrichment or nearness to the bait. Other partners may have been found. For some assays here: No binding means not detected with the bait. Values belong to the molecule of their own block, whether it stands above or below them.
Legend:
[1] = target: T1, Echinoderm microtubule-associated protein-like 3 (mouse (endogenous in embryo and placenta lysates)) (UniProt Q8VC03); experiment: affinity purification with mass spectrometry; immunoprecipitation with affinity-purified rabbit polyclonal anti-EML3 C-terminal antibody on anti-rabbit IgG Dynabeads from 1.5 mg mouse tissue lysate (E15.5 whole embryo, E12.5 embryo head, E12.5 placenta; 0.5% NP-40 lysis buffer), overnight 4 C; on-bead trypsin digestion; Eml3-/- tissue or control IgG as controls
T1 sequence: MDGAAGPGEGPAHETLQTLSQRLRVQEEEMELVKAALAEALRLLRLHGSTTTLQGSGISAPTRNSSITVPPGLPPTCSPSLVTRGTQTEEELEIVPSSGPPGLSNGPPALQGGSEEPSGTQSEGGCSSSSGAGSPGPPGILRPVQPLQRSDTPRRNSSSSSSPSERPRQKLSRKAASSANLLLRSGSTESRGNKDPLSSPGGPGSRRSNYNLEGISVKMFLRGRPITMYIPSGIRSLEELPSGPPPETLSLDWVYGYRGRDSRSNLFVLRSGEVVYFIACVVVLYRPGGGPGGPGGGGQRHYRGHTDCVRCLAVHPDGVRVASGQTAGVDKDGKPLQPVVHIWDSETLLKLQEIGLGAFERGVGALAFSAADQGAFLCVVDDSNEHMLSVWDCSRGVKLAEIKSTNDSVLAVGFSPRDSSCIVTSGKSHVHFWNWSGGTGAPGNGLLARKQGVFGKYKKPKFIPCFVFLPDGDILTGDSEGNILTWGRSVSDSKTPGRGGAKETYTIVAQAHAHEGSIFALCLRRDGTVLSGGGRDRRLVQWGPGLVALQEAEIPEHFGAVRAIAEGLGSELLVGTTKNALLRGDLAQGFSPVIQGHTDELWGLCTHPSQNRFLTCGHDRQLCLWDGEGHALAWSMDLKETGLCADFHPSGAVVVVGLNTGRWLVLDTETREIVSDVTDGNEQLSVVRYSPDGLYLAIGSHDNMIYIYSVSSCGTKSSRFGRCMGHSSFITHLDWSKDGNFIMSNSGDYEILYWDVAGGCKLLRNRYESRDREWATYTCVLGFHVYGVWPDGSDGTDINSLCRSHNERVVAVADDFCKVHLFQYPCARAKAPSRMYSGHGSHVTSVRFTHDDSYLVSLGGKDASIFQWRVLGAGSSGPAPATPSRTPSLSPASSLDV

Chains of the proteins cited; added tags and fusions are not shown.
UniProt P68510: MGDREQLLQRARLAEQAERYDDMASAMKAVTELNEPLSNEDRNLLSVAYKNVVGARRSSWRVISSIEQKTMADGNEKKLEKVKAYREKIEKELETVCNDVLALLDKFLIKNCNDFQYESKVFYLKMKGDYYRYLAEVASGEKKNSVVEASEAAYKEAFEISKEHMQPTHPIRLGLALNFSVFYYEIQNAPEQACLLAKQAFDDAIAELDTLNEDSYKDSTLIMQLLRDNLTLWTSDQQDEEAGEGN
UniProt P63168: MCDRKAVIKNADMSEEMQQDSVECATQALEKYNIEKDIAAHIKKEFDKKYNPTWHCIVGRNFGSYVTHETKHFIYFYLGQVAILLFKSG
UniProt P09405: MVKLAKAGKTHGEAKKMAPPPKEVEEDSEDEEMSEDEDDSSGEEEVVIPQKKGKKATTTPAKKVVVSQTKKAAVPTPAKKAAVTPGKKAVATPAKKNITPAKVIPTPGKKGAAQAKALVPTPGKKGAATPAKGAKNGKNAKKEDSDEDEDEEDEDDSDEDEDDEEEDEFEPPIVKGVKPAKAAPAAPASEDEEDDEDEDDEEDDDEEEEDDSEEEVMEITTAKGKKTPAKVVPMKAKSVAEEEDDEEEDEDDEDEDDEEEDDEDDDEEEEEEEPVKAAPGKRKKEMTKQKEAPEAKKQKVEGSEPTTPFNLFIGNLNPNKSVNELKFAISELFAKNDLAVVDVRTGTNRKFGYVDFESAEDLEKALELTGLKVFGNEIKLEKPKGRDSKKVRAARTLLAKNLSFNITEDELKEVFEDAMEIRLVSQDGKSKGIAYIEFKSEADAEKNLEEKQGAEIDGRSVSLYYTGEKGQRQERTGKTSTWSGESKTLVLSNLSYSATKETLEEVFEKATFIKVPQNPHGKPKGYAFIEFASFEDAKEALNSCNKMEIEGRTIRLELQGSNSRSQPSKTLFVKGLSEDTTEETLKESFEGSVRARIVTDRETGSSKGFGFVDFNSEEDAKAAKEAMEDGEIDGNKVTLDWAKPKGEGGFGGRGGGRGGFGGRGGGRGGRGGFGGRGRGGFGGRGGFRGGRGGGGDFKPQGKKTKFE
UniProt P62259: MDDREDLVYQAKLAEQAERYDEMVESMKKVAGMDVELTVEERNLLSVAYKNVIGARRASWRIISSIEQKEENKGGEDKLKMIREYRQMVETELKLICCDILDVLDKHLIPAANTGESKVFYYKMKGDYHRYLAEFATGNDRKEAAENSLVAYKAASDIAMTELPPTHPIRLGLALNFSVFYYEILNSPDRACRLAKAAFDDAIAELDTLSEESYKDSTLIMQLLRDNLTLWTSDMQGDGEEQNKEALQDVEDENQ
UniProt P63101: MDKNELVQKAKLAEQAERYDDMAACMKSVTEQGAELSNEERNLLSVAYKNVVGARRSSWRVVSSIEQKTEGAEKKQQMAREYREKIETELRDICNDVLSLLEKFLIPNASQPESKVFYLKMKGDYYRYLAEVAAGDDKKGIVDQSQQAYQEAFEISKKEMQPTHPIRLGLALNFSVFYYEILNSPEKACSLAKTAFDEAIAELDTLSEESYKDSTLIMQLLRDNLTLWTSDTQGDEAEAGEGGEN
UniProt P23242: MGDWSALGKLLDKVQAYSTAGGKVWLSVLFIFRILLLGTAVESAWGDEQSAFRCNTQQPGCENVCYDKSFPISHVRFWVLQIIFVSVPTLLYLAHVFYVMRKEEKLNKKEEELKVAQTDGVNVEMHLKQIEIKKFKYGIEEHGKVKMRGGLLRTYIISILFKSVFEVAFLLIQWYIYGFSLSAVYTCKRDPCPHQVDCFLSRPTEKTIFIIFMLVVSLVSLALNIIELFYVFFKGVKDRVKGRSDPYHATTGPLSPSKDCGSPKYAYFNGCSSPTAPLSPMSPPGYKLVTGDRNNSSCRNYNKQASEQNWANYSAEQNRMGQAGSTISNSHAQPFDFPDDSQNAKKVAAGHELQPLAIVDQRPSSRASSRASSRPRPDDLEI
UniProt Q61879: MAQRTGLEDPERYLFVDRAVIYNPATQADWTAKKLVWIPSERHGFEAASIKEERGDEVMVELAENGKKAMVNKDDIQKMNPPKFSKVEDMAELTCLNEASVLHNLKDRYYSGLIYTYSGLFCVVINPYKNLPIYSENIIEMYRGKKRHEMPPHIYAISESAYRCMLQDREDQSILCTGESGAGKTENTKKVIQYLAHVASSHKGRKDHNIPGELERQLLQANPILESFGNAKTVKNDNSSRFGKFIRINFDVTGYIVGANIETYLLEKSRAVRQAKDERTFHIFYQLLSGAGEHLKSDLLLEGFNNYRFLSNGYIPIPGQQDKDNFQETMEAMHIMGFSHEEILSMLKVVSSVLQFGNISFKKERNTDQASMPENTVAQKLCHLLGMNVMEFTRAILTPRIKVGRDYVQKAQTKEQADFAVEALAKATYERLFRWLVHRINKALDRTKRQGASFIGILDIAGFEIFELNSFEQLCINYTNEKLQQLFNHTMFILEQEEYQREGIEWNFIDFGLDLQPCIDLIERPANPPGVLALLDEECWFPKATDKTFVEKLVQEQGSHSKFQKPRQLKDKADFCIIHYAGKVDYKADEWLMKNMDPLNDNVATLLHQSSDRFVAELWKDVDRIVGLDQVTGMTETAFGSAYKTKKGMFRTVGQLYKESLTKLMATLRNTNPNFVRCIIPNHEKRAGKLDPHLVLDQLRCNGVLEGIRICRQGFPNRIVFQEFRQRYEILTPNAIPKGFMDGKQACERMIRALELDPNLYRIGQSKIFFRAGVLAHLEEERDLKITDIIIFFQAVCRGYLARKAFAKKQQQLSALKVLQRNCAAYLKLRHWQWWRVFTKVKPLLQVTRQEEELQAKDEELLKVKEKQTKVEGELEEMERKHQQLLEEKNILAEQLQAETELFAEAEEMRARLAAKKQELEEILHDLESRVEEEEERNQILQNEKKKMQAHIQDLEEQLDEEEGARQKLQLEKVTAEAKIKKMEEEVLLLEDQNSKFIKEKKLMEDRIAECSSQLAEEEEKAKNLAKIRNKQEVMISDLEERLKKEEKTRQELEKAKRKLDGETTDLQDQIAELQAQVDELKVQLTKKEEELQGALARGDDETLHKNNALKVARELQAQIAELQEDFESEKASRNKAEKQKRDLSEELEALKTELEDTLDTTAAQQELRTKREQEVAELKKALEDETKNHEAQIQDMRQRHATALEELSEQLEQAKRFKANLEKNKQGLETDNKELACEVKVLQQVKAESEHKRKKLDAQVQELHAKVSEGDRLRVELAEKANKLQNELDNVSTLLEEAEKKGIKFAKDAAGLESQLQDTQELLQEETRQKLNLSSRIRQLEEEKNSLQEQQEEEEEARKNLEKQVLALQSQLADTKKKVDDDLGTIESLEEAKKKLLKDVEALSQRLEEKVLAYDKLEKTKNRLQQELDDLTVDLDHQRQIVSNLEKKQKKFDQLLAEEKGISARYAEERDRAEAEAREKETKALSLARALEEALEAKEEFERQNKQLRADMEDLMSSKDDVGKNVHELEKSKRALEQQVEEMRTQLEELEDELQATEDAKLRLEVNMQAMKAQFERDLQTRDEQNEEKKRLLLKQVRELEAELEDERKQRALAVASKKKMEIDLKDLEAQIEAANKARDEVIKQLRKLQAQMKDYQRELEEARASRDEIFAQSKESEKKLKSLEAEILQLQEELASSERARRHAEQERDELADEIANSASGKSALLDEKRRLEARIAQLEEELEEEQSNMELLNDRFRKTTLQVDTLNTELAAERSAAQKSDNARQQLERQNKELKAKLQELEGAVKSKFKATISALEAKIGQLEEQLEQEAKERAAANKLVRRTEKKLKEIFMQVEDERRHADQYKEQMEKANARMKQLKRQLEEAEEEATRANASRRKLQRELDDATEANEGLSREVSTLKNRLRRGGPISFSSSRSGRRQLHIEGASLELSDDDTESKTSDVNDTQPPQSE

[2] = target: T2, EML3 TQT86AAA of homozygous Eml3 TQT86AAA knock-in mice (mouse (endogenous in placenta lysate)) (UniProt Q8VC03); experiment: as above
T2 sequence: T1 sequence with T86A, Q87A, T88A

Molecule: 14-3-3 protein eta (from UniProt P68510 1-246)
binding [2]: binds | binding [1]: binds

Molecule: Dynein light chain 1, cytoplasmic (from UniProt P63168 1-89)
binding [2]: no binding | binding [1]: binds

Molecule: Fibrillin-2 (from UniProt Q61555 78-2773)
binding [1]: binds

Molecule: Nucleolin (from UniProt P09405 1-707)
binding [1]: binds

B1: Sfrs10 protein (protein, UniProt P62996 1-288)
chain: MSDSGEQNYGERESRSASRSGSAHGSGKSARHTPARSRSKEDSRRSRSKSRSRSESRSRSRRSSRRHYTRSRSRSRSHRRSRSRSYSRDYRRRHSHSHSPMSTRRRHVGNRANPDPNCCLGVFGLSLYTTERDLREVFSKYGPIADVSIVYDQQSRRSRGFAFVYFENVDDAKEAKERANGMELDGRRIRVDFSITKRPHTPTPGIYMGRPTYGSSRRRDYYDRGYDRGYDDRDYYSRSYRGGGGGGGGWRAAQDRDQIYRRRSPSPYYSRGGYRSRSRSRSYSPRRY
binding [1]: binds

B3: 14-3-3 protein gamma (protein, UniProt P61982 1-247)
chain: MVDREQLVQKARLAEQAERYDDMAAAMKNVTELNEPLSNEERNLLSVAYKNVVGARRSSWRVISSIEQKTSADGNEKKIEMVRAYREKIEKELEAVCQDVLSLLDNYLIKNCSETQYESKVFYLKMKGDYYRYLAEVATGEKRATVVESSEKAYSEAHEISKEHMQPTHPIRLGLALNYSVFYYEIQNAPEQACHLAKTAFDDAIAELDTLNEDSYKDSTLIMQLLRDNLTLWTSDQQDDDGGEGNN
binding [1]: binds

Other lines, results leading:

binding [1]: binds
Molecule: 14-3-3 protein epsilon (from UniProt P62259 1-255)

binding [2]: binds | binding [1]: binds
Molecule: 14-3-3 protein zeta/delta (from UniProt P63101 1-245)

binding [2]: binds | binding [1]: binds
Molecule: Gap junction alpha-1 protein (from UniProt P23242 1-382)

binding [1]: binds
Molecule: Integrin alpha-5

binding [1]: binds
Molecule: Myosin-10 (from UniProt Q61879 1-1976)

binding [2]: binds | binding [1]: binds
B2: 14-3-3 protein theta (protein, UniProt P68254 1-245)
chain: MEKTELIQKAKLAEQAERYDDMATCMKAVTEQGAELSNEERNLLSVAYKNVVGGRRSAWRVISSIEQKTDTSDKKLQLIKDYREKVESELRSICTTVLELLDKYLIANATNPESKVFYLKMKGDYFRYLAEVACGDDRKQTIENSQGAYQEAFDISKKEMQPTHPIRLGLALNFSVFYYEILNNPELACTLAKTAFDEAIAELDTLNEDSYKDSTLIMQLLRDNLTLWTSDSAGEECDAAEGAEN

Reference: paper PMC13349382
